No constants are given. Whether binding was seen depends on the method and setting. In cells and extracts the contact can be indirect. Binding calls can cover weak binding; strength is not graded here. For some assays here: Sequences can lack the tags named with a protein.
How the values were obtained:
[1] = target: T1, GST-tagged PRMT7 (UniProt Q9NVM4); assay: pull-down
T1 sequence: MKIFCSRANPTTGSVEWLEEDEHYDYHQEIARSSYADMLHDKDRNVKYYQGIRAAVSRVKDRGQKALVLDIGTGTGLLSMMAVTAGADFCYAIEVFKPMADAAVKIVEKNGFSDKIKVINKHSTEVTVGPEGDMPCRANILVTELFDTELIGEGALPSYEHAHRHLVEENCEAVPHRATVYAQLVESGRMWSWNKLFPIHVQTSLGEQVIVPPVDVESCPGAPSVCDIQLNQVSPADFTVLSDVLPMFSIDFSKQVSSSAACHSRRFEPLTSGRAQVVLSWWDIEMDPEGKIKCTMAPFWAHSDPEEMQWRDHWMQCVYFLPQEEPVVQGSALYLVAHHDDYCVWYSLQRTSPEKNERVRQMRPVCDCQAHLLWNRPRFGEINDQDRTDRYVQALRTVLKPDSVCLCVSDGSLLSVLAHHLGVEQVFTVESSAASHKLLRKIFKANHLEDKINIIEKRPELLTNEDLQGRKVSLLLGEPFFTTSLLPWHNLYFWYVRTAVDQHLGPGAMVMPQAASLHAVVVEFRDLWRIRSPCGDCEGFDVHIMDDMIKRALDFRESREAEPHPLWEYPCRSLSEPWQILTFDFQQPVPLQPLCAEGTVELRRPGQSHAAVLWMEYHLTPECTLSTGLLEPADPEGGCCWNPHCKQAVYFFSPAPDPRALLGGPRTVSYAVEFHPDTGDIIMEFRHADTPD

[2] = target: T2, PRMT7 (endogenous) (human (endogenous in MDA-MB-231)) (UniProt Q9NVM4); assay: co-IP
T2 sequence: T1 sequence

shank2 (endogenous)
binding [1]: binds
binding [2]: binds
